Measurements: US20070190024A1 (INSERM INSTITUT NATIONAL DE LA SANTE ET DE LA RECH, published 2007)

Molecular target: IL-6Rα
Assay: RIA with 32P-labelled H/V-D/A

binding: no binding
B1: H/V-D/A mutein (FPΔIL-11 with H182V and D186A) (ligand)
chain: MDYKDDDDKEGRRASVASPDPRAELDSTVLLTRSLLADTRQLAAQLRDKFPADGDHNLDSLPTLAMSAGALGALQLPGVLTRLRADLLSYLRHVQWLRRAGGSSLKTLEPELGTLQARLDRLLRRLQLLMSRLALPQPPPDPPAPPLAPPSSAWGGIRAAHAILGGLVLTLAWAVRGLLLLKTRL
notes: in SPR it was unlabelled; also called H182V+D186A; mutant FPΔIL-11

These are yes or no findings as the source states them, for the method shown.
